Measurements taken from doi:10.1101/2020.04.10.022483.
These are yes or no findings as the source states them, for the method shown. In cells and extracts the contact can be indirect. Some binding calls cover weakened binding; strength is not graded here. Sequences can lack the tags named with a protein.

Target: T1, Hyperpolarization-activated cyclic nucleotide-sensitive isoform 4 (HCN4) channel, HEK-293 stable line (UniProt Q9Y3Q4)
T1 sequence: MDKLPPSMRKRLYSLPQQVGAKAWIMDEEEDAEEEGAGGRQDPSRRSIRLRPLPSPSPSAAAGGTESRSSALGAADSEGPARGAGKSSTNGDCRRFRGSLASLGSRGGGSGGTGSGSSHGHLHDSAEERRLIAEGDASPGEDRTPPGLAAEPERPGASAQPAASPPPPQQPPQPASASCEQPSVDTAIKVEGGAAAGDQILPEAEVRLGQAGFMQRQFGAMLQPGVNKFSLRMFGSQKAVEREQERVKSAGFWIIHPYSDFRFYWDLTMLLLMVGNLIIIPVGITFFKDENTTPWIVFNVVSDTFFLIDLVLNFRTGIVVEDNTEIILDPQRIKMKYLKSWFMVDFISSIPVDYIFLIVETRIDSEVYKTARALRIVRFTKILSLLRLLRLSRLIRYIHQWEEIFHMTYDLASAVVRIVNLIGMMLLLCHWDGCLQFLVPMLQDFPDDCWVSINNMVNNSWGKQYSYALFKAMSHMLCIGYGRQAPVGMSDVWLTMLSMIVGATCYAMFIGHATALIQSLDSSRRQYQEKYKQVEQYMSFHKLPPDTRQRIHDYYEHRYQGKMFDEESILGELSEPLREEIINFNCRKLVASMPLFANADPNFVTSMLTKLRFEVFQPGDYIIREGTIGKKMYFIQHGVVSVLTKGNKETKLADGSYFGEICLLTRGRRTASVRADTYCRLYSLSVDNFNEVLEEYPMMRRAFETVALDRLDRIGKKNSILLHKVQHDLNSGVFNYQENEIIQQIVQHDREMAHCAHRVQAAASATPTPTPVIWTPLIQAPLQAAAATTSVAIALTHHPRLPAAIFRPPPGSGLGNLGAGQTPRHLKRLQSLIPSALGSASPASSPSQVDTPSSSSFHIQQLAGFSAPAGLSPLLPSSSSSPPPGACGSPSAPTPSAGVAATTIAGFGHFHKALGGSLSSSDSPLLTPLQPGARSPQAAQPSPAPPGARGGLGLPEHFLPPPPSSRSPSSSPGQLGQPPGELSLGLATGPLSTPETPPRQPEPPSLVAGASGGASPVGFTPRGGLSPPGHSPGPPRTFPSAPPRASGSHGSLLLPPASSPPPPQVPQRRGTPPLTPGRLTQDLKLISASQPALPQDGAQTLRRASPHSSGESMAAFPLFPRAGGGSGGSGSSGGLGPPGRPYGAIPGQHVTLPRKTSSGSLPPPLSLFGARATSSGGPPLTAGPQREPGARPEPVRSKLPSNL
Assay: co-IP

Binder | binding
Myc-tagged lymphoid-restricted membrane protein (Myc-LRMP), mouse (protein, UniProt Q60664 1-539) MLCVKGPPEQEPEDGALDVTRGCQCPLPTEDSILGQELLDCTRMNEDQSTDENGAGHFYSESPSQLREYLTQPSSEQTSSSESTVTSSESGSDILHMASGDLDCKPLCEKEEEARAASAMQGTSLAPAAYGDYTSVGVAKAASQLEAGEELRTTENGGKGSAPGETEISMPPKASVKLVNFQQSENTSANEKEVEAEFLRLSLGLKCDWFTLEKRVKLEERSRDLAEENLKKEITNCLKLLESLTPLCEEDNQAQEIVKKLEKSIVLLSQCTARVASRAEMLGAINQESRVSRAVEVMIQHVENLKRMYAKEHAELEDLKQALLQNDRSFNSLPDEDDCQIKKRSSSLNSKPSSLRRVTIASLPRNLGNVGLVSGMENNDRFSRRSSSWRILGTKQGEHRPSLHRFISTYSWADAEDERSDVKARDAPEPQGEEAVERTRKPSLSERRSSTLAWDRGTICSSVASWVTHLQASFRRANRALWLTGLIIILIAALMSFLTGQLFQTAVEAAPTQEGDSWLSLEHILWPFTRLGHDGPPPV | binds
Myc-tagged inositol trisphosphate receptor-associated guanylate kinase substrate (Myc-IRAG), mouse (protein, UniProt Q9WUX5 1-899) MGRSLTCPFGISPACGAQASWSIFGVGTAEVPGTHSHSNQAAAMPHIPEDEEPPGEPQAAQTQDSPSAGPFPSPPTIVLTGDASSPEGETDKNLVNRAPSPHRRLSHRHLKVSTASLTSVDPSGHVIDLVNDQLPDISISEEDKKKNLALLEEAKLVSERFLTRRGRKSRSSLGDSPSAVSPNLSSGASPASSRSCSLTISTSPGLDICSGPQSPLPGAPPQQKGHEDGVSSPCPGEPNVSKGLADLKQNDQRKVSQGRLAPRSPTVEKTKELTVEQKENFDPLQHVEATPMAQASGASISGKMALNSPQPGPAEMELGRQLLKTAREGNPLPRTTAQGSGGTVSPHSLGQGSAGEPMGPKAGSKAELRSPVSRPPLIRGVSWDSSPEEPGPLLQKVLAKLPLAEEEKRFPGKAKPAKPPGLKDFQIQVQPVRMQKLTKLREEHILMRNQNLVGFKLPELSEAAEQDKGVSPELAPAAEEEESKSGLDVMPNISDILLRKLRVHKSLTGSAPPLTEKEVENVFVQLSLAFRNDSYTLESRINQAERERNLTEENTEKELENFKASITSSANIWYHCEHRETYQKLLEDIAVLHRLAARLSSRAEVVGAVRQEKRMSKATEVMMQYVENLKRTYEKDHAELMEFKKLANQNSSRSCGPSEDGVPRTARSMSLTMGKNMPRRRVSVAVVPKFNALNLPGQAPSSSPMPSLPALSESSNGKSSISVSPALPALLENGKTNAEANCEVGAPVPLPSCLEETSQETKAKAEEEAYSKGYQEGVKKTEELQDLKEEEEEEQKTESPEEPEEVEETQEDEKDQGSSKLEELVHFLQVMYPKLCQHWQVIWMMAAVMLVLSVVLGLYSSYNSCTEEADGPPGRSTCSAAQRDSWWSSGLQQELPAEQ | binds
